Part of at least one peptide drawing is inferred or uncertain, most often the ends.
Legend:
[1] = Circular dichroism (CD) measurement of β sheet structure formation; format: physicochemical
[2] = Confirmation of formation of fibrous structure by atomic force microscope; format: physicochemical; details: 0.5% by weight in phosphate buffer (pH 7.4)

## CC(=O)N[C@@H](CCCNC(=N)N)C(=O)N[C@@H](C)C(=O)N[C@@H](CC(=O)O)C(=O)N[C@@H](C)C(=O)N[C@@H](CCCNC(=N)N)C(=O)N[C@@H](C)C(=O)N[C@@H](CC(=O)O)C(=O)N[C@@H](C)C(=O)N[C@@H](CCCNC(=N)N)C(=O)N[C@@H](C)C(=O)N[C@@H](CC(=O)O)C(=O)N[C@@H](C)C(=O)N[C@@H](CCCNC(=N)N)C(=O)N[C@@H](C)C(=O)N[C@@H](CC(=O)O)C(=O)N[C@@H](C)C(N)=O [(RADA)4]
[1]; in aqueous solution and physiological saline
  formation of β sheet structure (CD: positive maximum around 197 nm, negative maximum around 216 nm): formed β sheet structures
[1]; in phosphate buffer (pH 7.4)
  formation of β sheet structure (CD): confirmed only for C(DiGlcNAc)-(RADA)4
[2]
  formation of fibrous structure (AFM): a fibrous structure was not formed
